The list shows a part of the results.
What was measured:
Assay in all cases: log2 fold change, soluble protein after heating vs DMSO (PISA); higher = thermal stabilisation; K562 cells, 10 uM, 30 min; active = over 0.2 and 3.5 SD of the protein, either way, in both replicates (recomputed)
[1] = compound: Cc1ccc(NC(=O)c2ccc(CN3CC[C@H](N(C)C)C3)c(C(F)(F)F)c2)cc1Nc1nccc(-c2cncnc2)n1 [bafetinib]
Method in brief: (§1)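 Soluble protein was quantified by TMTpro 16plex LC-MS/MS after channel sums were equalised. It was obtained as the supernatant after 21,000xg for 90 min from pooled aliquots of K562 cells (2×10^6 cells/mL, 10 μM compound, 30 min) heated for 3 min across 48°C-58°C and extracted in PBS with 0.5% NP-40 at 4°C. Thermal stability values are relative to control samples and come from duplicates. They are given as log2 fold changes.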

Amino acid sequences for entries named in this document (tags omitted). A change or cut given only in a name is not applied to a line headed by its entry.
UniProt P23677, whole entry, looked up: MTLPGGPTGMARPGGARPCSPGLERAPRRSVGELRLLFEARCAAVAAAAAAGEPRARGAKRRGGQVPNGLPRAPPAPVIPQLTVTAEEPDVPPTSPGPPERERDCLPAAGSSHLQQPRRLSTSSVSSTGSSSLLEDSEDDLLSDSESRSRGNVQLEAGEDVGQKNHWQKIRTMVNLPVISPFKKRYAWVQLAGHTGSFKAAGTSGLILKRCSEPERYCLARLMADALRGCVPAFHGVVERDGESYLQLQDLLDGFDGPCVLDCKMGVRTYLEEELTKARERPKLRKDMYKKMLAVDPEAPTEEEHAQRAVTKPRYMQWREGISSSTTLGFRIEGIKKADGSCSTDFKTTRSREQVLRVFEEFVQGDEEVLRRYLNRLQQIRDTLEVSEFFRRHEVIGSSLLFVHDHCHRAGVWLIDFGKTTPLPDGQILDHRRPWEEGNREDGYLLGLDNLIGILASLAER
UniProt P78318: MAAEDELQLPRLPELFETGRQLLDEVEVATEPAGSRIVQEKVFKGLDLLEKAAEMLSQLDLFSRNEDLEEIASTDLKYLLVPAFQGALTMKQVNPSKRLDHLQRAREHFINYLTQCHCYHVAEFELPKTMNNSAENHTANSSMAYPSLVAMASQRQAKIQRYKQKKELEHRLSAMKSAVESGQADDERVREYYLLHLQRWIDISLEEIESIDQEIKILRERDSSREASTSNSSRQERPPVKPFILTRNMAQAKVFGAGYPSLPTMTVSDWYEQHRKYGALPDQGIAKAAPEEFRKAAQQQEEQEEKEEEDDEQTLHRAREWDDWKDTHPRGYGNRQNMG
UniProt Q9P2H3, whole entry, looked up: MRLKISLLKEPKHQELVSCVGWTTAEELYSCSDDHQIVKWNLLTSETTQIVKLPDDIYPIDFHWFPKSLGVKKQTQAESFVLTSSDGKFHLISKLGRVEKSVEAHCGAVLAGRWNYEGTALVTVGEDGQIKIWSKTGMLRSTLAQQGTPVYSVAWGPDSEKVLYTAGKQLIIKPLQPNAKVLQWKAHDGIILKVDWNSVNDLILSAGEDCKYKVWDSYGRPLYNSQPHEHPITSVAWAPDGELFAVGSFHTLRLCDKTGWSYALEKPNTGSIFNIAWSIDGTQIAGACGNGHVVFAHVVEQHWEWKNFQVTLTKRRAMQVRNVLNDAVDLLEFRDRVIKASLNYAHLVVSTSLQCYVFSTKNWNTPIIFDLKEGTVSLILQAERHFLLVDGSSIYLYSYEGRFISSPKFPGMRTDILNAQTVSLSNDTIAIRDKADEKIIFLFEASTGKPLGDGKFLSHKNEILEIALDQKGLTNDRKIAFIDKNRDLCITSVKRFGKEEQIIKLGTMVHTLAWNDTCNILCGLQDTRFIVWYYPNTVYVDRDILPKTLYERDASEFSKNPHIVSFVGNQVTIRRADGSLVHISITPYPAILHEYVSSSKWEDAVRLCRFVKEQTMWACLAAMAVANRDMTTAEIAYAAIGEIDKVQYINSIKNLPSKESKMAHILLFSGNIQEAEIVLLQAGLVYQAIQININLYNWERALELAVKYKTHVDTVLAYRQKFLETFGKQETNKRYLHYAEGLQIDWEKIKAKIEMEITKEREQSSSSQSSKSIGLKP
UniProt Q9H2S9: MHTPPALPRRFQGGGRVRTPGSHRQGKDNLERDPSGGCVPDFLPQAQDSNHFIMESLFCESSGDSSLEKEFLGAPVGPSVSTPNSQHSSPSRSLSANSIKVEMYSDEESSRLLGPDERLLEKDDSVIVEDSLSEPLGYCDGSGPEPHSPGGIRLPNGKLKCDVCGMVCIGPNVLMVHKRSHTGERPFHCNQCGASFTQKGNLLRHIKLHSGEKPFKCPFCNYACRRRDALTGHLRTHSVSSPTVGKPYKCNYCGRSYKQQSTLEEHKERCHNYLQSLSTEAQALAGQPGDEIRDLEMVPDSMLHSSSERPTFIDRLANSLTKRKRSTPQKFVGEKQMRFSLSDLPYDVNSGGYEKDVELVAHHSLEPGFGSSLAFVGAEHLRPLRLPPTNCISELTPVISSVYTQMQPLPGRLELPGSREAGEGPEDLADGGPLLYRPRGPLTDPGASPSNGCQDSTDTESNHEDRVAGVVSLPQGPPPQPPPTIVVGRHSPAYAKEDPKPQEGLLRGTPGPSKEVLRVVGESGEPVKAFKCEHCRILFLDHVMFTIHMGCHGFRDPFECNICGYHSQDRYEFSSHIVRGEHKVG
UniProt P38570: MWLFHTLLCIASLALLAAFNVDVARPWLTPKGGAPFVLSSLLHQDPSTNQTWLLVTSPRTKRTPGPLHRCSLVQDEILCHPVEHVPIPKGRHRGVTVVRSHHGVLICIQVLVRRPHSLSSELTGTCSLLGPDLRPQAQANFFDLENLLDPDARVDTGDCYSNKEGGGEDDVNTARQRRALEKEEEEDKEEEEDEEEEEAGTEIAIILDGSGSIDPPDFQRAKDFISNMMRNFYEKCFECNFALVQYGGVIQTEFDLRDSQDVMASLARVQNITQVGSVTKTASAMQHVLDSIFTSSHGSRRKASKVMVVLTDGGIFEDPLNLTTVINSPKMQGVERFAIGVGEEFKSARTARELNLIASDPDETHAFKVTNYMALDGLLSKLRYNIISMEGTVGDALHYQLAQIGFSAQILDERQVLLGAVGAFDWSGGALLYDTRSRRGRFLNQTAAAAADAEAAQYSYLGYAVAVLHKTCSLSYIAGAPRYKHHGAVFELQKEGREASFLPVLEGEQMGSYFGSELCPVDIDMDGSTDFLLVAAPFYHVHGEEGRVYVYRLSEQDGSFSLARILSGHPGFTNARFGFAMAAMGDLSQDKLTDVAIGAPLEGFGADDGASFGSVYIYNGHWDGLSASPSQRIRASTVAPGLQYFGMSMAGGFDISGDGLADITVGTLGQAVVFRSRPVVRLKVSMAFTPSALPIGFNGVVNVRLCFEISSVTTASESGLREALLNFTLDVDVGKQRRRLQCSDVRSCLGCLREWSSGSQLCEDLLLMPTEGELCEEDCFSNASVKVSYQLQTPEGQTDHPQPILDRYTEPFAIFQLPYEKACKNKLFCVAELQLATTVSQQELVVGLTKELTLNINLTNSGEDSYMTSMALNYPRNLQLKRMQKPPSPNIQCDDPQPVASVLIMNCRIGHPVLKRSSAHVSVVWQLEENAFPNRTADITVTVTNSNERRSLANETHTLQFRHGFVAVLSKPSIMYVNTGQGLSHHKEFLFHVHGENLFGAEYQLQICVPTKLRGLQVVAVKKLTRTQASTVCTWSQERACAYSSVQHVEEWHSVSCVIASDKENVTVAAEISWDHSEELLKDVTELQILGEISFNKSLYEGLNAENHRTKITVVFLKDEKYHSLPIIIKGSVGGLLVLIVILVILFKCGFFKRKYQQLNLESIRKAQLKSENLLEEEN
UniProt Q08334: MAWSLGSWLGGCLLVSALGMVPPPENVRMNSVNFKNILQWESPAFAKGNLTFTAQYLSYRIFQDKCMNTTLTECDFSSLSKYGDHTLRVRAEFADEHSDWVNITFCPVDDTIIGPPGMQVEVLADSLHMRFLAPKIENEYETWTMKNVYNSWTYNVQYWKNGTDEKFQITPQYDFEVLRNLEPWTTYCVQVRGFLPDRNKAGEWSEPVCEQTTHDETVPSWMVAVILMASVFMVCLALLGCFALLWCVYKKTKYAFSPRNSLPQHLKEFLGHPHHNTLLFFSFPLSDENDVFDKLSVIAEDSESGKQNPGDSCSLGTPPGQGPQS
UniProt Q9NQX7: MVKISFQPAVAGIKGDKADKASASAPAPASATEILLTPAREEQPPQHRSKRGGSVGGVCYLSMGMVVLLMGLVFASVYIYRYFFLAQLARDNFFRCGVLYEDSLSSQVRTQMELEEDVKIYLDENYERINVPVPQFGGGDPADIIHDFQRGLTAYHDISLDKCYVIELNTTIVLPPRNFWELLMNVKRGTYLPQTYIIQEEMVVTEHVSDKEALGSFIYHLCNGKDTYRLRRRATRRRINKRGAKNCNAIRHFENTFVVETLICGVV
UniProt Q5TA45, whole entry, looked up: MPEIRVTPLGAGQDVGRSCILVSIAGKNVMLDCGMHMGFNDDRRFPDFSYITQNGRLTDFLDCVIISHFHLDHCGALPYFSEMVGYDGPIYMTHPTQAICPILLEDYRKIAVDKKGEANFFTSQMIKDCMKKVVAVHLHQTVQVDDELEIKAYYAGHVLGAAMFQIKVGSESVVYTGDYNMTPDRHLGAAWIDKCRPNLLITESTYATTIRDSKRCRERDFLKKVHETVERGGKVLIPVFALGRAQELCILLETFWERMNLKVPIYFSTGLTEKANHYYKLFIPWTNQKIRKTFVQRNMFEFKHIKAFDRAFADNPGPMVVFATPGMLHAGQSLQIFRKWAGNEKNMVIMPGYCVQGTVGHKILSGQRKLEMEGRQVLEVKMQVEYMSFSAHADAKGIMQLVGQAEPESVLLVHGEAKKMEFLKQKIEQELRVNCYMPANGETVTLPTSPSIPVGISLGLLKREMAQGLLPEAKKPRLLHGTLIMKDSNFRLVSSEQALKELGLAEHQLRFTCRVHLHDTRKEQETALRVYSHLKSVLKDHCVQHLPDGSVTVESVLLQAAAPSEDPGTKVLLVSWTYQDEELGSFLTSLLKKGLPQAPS
UniProt Q9NV88, whole entry, looked up: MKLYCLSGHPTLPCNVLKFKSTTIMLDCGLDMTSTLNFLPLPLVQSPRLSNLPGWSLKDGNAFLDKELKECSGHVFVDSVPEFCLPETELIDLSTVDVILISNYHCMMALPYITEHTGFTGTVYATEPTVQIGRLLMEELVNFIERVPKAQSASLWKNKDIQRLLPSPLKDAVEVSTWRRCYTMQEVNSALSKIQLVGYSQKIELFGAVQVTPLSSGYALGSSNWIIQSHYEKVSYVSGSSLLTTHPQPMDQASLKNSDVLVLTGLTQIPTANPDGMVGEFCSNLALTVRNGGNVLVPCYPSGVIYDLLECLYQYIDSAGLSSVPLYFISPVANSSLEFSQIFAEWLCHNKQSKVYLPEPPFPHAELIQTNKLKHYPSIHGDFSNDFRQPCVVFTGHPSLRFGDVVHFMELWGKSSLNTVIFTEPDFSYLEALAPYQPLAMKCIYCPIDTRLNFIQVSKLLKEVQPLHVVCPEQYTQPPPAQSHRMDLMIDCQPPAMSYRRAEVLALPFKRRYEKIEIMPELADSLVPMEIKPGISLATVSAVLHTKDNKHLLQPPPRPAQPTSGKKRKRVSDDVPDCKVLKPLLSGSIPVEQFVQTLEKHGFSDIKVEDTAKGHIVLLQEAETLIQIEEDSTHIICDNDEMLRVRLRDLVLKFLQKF
UniProt Q9NV31: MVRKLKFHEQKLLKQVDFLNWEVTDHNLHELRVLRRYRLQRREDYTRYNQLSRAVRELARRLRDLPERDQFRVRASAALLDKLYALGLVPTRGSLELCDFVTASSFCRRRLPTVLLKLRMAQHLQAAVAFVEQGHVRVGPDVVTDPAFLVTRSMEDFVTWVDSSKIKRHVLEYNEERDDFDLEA
UniProt Q8TEX9: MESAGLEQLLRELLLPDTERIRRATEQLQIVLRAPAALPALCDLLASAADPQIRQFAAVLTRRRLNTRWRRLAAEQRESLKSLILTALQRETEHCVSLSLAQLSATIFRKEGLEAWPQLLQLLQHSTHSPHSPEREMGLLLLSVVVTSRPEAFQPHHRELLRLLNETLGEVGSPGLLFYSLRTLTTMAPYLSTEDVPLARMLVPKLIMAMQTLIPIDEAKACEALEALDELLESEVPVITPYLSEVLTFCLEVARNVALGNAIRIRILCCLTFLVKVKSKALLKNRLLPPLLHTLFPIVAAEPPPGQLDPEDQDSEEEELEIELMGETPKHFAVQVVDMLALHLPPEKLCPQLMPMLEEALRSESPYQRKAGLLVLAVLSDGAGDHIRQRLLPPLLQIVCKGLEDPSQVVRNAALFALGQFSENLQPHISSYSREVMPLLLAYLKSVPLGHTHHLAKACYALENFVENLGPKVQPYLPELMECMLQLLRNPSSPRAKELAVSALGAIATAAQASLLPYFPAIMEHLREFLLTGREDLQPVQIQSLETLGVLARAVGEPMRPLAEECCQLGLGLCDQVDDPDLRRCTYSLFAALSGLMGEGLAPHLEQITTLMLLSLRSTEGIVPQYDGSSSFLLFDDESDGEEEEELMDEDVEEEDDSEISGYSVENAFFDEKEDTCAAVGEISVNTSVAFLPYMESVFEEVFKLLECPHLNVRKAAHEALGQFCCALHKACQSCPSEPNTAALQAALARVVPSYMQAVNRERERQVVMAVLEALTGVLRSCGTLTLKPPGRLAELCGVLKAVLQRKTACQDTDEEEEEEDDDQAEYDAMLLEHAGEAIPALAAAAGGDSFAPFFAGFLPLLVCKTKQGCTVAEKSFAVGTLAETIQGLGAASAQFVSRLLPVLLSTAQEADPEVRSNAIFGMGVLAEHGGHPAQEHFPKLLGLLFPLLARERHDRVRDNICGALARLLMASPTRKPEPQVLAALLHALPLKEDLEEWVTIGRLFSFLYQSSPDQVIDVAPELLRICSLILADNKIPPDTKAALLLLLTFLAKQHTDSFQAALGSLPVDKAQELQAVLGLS

[2] = compound: Cc1cccc(CC(=O)N2CCc3c2ccc(-c2cn(C)c4ncnc(N)c24)c3F)n1
Method in brief: as §1

[3] = compound: Cc1cn(-c2cc(NC(=O)c3ccc(C)c(Nc4nccc(-c5cccnc5)n4)c3)cc(C(F)(F)F)c2)cn1 [nilotinib]
Method in brief: as §1

[4] = compound: Cc1nc(Nc2n[nH]c3c2CN(C(=O)N[C@H](CN(C)C)c2ccccc2)C3(C)C)c2sccc2n1
Method in brief: as §1

[5] = compound: Cc1nc(Nc2ncc(C(=O)Nc3c(C)cccc3Cl)s2)cc(N2CCN(CCO)CC2)n1 [dasatinib]
Method in brief: as §1

[6] = compound: Cc1ncc(-c2ccnc(Nc3ccc(S(C)(=O)=O)cc3)n2)n1C(C)C
Method in brief: as §1

[7] = compound: Cn1cc(-c2ccc3nnc(C(F)(F)c4ccc5ncccc5c4)n3n2)cn1
Method in brief: as §1

[8] = compound: Cn1cncc1[C@@](N)(c1ccc(Cl)cc1)c1ccc2c(c1)c(-c1cccc(Cl)c1)cc(=O)n2C [tipifarnib]
Method in brief: as §1

[9] = compound: FC(F)(F)c1ccc(/C=C/c2nc(COc3ccc(CCCCn4ccnn4)cc3)co2)cc1 [mubritinib]
Method in brief: as §1

[10] = compound: NC(=O)Nc1cc(-c2cccc(F)c2)sc1C(=O)N[C@H]1CCCNC1
Method in brief: as §1

[11] = compound: NC(=O)c1cnc(N[C@@H]2CCCC[C@@H]2N)nc1Nc1cccc(-n2nccn2)c1
Method in brief: as §1

[12] = compound: NC1(c2ccc(-c3nc4ccn5c(=O)[nH]nc5c4cc3-c3ccccc3)cc2)CCC1
Method in brief: as §1

[13] = compound: NCC(=O)Nc1ccc(-n2nc(C(F)(F)F)cc2-c2ccc3c(ccc4ccccc43)c2)cc1
Method in brief: as §1

[14] = compound: Nc1ccccc1NC(=O)c1ccc(CNC(=O)OCc2cccnc2)cc1 [entinostat]
Method in brief: as §1

[15] = compound: O=C(CCCCCCC(=O)Nc1ccccc1)NO [vorinostat]
Method in brief: as §1

[16] = compound: O=C(CCCCCCNC(=O)c1cnc(N(c2ccccc2)c2ccccc2Cl)nc1)NO [citarinostat]
Method in brief: as §1

[17] = compound: O=C(O)c1ccc2c(c1)nc(Nc1cccc(Cl)c1)c1ccncc12 [silmitasertib]
Method in brief: as §1

[18] = compound: O=C1NC(=O)C(c2cnc3ccccn23)=C1c1cn2c3c(cc(F)cc13)CN(C(=O)N1CCCCC1)CC2
Method in brief: as §1

[19] = compound: c1cc(OCCN2CCCCC2)cc(-c2n[nH]c3ccc(-c4nnc[nH]4)cc23)c1
Method in brief: as §1

[20] = compound: Cn1cc(-c2ccc3c(c2)CCN3C(=O)Cc2cccc(C(F)(F)F)c2)c2c(N)ncnc21
Method in brief: as §1

Target | log2 fold change [1] | log2 fold change [2] | log2 fold change [3] | log2 fold change [4] | log2 fold change [5] | log2 fold change [6] | log2 fold change [7] | log2 fold change [8] | log2 fold change [9] | log2 fold change [10] | log2 fold change [11] | log2 fold change [12] | log2 fold change [13] | log2 fold change [14] | log2 fold change [15] | log2 fold change [16] | log2 fold change [17] | log2 fold change [18] | log2 fold change [19] | log2 fold change [20]
ITPKA (UniProt P23677) | inactive: 0.147 | inactive: 0.17 | inactive: -0.09 | inactive: 0 | inactive: -0.322 | inactive: 0.286 | inactive: -0.124 | inactive: 0.039 | inactive: 0.034 | inactive: -0.183 | inactive: 0.025 | inactive: -0.27 | inactive: -0.057 | inactive: 0.097 | inactive: -0.046 | inactive: 0.175 | inactive: -0.649 | inactive: 0.089 | inactive: -0.032 | 
IPO9 (UniProt Q96P70) | inactive: 0.019 | inactive: 0.031 | inactive: -0.016 | inactive: -0.06 | inactive: 0.04 | inactive: 0.011 | inactive: -0.06 | inactive: -0.084 | inactive: -0.005 | inactive: 0.059 | inactive: -0.072 | inactive: -0.07 | inactive: 0.003 | inactive: 0.022 | inactive: 0.041 | inactive: 0.061 | inactive: 0.164 | inactive: 0.048 | inactive: -0.035 | inactive: -0.069
IGBP1 (UniProt P78318) | inactive: 0.016 | inactive: -0.016 | inactive: -0.001 | inactive: -0.084 | inactive: -0.012 | inactive: -0.044 | inactive: -0.039 | inactive: -0.044 | inactive: 0.102 | inactive: 0.025 | inactive: -0.09 | inactive: -0.136 | inactive: -0.035 | inactive: 0.035 | inactive: 0.032 | inactive: 0.074 | inactive: 0.048 | inactive: -0.085 | inactive: -0.017 | inactive: -0.062
IFT80 isoform 3 (UniProt Q9P2H3) | inactive: -0.127 | inactive: 0.077 | inactive: -0.059 | inactive: -0.02 | inactive: -0.148 | inactive: 0.114 | inactive: 0.039 | inactive: -0.07 | inactive: 0.17 | inactive: 0.027 | inactive: 0.031 | inactive: -0.081 | inactive: 0.003 | inactive: -0.005 | inactive: 0.04 | inactive: 0.011 | inactive: -0.085 | inactive: -0.086 | inactive: -0.093 | inactive: 0.036
IL18R1 (UniProt Q13478) | inactive: -0.182 | inactive: 0.053 | inactive: -0.136 | inactive: 0.057 | inactive: 0.089 | inactive: 0.071 |  | inactive: -0.04 | inactive: 0.166 | inactive: -0.401 |  | inactive: -0.141 |  | inactive: -0.257 | inactive: 0.032 |  | inactive: 0.035 |  |  | 
IKZF4 (UniProt Q9H2S9) | inactive: -0.163 | inactive: -0.01 | inactive: 0.233 | inactive: 0.069 | inactive: 0.016 | inactive: 0.152 | inactive: 0.16 | inactive: -0.002 |  | inactive: -0.173 | inactive: 0.067 |  | inactive: -0.146 | inactive: 0.137 | inactive: 0.06 |  |  | inactive: -0.03 |  | inactive: 0.097
ITGAE (UniProt P38570) | inactive: -0.203 | inactive: -0.209 | inactive: -0.045 | inactive: 0.05 |  | inactive: 0.017 | inactive: 0.022 | inactive: 0.004 | inactive: 0.131 | inactive: -0.179 |  | inactive: -0.009 | inactive: 0.094 | inactive: -0.185 | inactive: 0.052 |  | inactive: -0.033 | inactive: -0.077 |  | inactive: 0.066
IL10RB (UniProt Q08334) | inactive: -0.079 | inactive: -0.031 | inactive: 0.026 | inactive: 0.151 | inactive: 0.068 | inactive: 0.105 |  | inactive: 0.126 |  | inactive: -0.113 | inactive: -0.121 |  | inactive: -0.031 | active: -0.431 | inactive: 0.109 | inactive: 0.055 |  | inactive: 0.062 | inactive: -0.026 | 
ITM2C (UniProt Q9NQX7) | inactive: -0.064 | inactive: -0.127 | inactive: 0.099 | inactive: -0.018 | inactive: 0.024 | inactive: 0.127 | inactive: 0.038 | inactive: 0.039 |  | inactive: -0.309 | inactive: -0.009 |  | inactive: -0.133 | inactive: 0.164 | inactive: -0.032 |  |  | inactive: 0.029 |  | inactive: 0.09
IDH3G (UniProt P51553) | inactive: -0.024 | inactive: 0.015 | inactive: 0.026 | inactive: 0 | inactive: -0.012 | inactive: -0.015 | inactive: 0.042 | inactive: -0.003 | inactive: 0.106 | inactive: 0.023 | inactive: -0.005 | inactive: -0.021 | inactive: 0.02 | inactive: -0.01 | inactive: 0.024 | inactive: 0.035 | inactive: -0.013 | inactive: -0.018 | inactive: 0.009 | inactive: 0.006
INTS11 (UniProt Q5TA45) | inactive: -0.006 | inactive: 0.019 | inactive: -0.013 | inactive: 0.016 | inactive: -0.018 | inactive: -0.01 | inactive: 0.004 | inactive: 0.007 | inactive: 0.044 | inactive: 0.024 | inactive: 0.001 | inactive: -0.046 | inactive: -0.002 | inactive: 0.024 | inactive: -0.056 | inactive: 0.06 | inactive: 0.001 | inactive: -0.107 | inactive: 0 | inactive: -0.008
INTS9 (UniProt Q9NV88) | inactive: -0.033 | inactive: 0.028 | inactive: -0.005 | inactive: 0.002 | inactive: -0.074 | inactive: -0.03 | inactive: -0.005 | inactive: 0.033 | inactive: 0.075 | inactive: -0.002 | inactive: -0.047 | inactive: -0.003 | inactive: -0.037 | inactive: 0.013 | inactive: -0.033 | inactive: 0.036 | inactive: -0.007 | inactive: -0.091 | inactive: -0.016 | inactive: 0.022
IMP3 (UniProt Q9NV31) | inactive: -0.063 | inactive: 0.024 | inactive: 0.054 | inactive: -0.063 | inactive: 0.604 | inactive: 0.045 | inactive: 0.045 | inactive: 0.211 | inactive: 0.168 | inactive: 0.027 | inactive: 0.358 | inactive: 0.049 | inactive: -0.355 | inactive: 0.58 | inactive: 0.033 | inactive: 0.105 | inactive: -0.201 | inactive: -0.018 | inactive: 0.018 | inactive: 0.053
IMPDH2 (UniProt H0Y4R1) | inactive: 0.222 | inactive: 0.023 | inactive: -0.147 | inactive: 0.056 |  | inactive: 0.008 | inactive: 0.081 | inactive: 0.063 | inactive: -0.084 |  | inactive: 0.037 | inactive: -0.03 | inactive: 0.001 |  | inactive: -0.078 |  | inactive: 0.008 | inactive: 0 |  | 
IRF2BP2 (UniProt Q7Z5L9) | inactive: -0.036 | inactive: 0.041 | inactive: 0.003 | inactive: 0 | inactive: -0.049 | inactive: 0.003 | inactive: -0.041 | inactive: -0.06 | inactive: 0.022 | inactive: 0.057 | inactive: 0.012 | inactive: -0.025 | inactive: 0.063 | inactive: -0.028 | inactive: 0.002 | inactive: 0.033 | inactive: -0.002 | inactive: -0.012 | inactive: 0.009 | inactive: 0.036
IPO4 isoform 2 (UniProt Q8TEX9) | inactive: 0.065 | inactive: 0.053 | inactive: -0.081 | inactive: -0.116 | inactive: -0.113 | inactive: 0.004 | inactive: -0.073 | inactive: -0.089 | inactive: -0.072 | inactive: 0.038 | inactive: -0.037 | inactive: -0.119 | inactive: 0.026 | inactive: 0.024 | inactive: 0.087 | inactive: 0.049 | inactive: 0.152 | inactive: 0.114 | inactive: -0.058 | inactive: -0.16
IFI30 (UniProt P13284) | active: -0.41 | inactive: 0.007 | inactive: 0.068 | inactive: 0.015 | inactive: 0.016 | inactive: -0.049 | inactive: 0.002 | inactive: 0.04 | inactive: 0.044 | inactive: 0.035 | inactive: 0.127 | inactive: -0.048 | inactive: 0.083 | inactive: -0.052 | inactive: 0.03 | inactive: 0.059 | inactive: -0.052 | inactive: 0.128 | inactive: -0.028 | inactive: 0.097

2 consecutive entries out of the list so far, for reference:
Target | log2 fold change [1] | log2 fold change [2] | log2 fold change [3] | log2 fold change [4] | log2 fold change [5] | log2 fold change [6] | log2 fold change [7] | log2 fold change [8] | log2 fold change [9] | log2 fold change [10] | log2 fold change [11] | log2 fold change [12] | log2 fold change [13] | log2 fold change [14] | log2 fold change [15] | log2 fold change [16] | log2 fold change [17] | log2 fold change [18] | log2 fold change [19] | log2 fold change [20]
ITM2C (UniProt Q9NQX7) | inactive: -0.064 | inactive: -0.127 | inactive: 0.099 | inactive: -0.018 | inactive: 0.024 | inactive: 0.127 | inactive: 0.038 | inactive: 0.039 |  | inactive: -0.309 | inactive: -0.009 |  | inactive: -0.133 | inactive: 0.164 | inactive: -0.032 |  |  | inactive: 0.029 |  | inactive: 0.09
IDH3G (UniProt P51553) | inactive: -0.024 | inactive: 0.015 | inactive: 0.026 | inactive: 0 | inactive: -0.012 | inactive: -0.015 | inactive: 0.042 | inactive: -0.003 | inactive: 0.106 | inactive: 0.023 | inactive: -0.005 | inactive: -0.021 | inactive: 0.02 | inactive: -0.01 | inactive: 0.024 | inactive: 0.035 | inactive: -0.013 | inactive: -0.018 | inactive: 0.009 | inactive: 0.006
